Test results from PubChem BioAssay AID540256 (National Center for Advancing Translational Sciences (NCATS), 2011).
Screen size: about 300,000 compounds; about 3,700 (1.2%) were called active. The shares of active, inactive and inconclusive entries below differ from those in the screen. The call rests on the fitted dose curve; tested in HEK293 cells. Potencies of inconclusive entries are doubtful fits and often do not repeat.
Potency means the concentration at half of the fitted maximal effect.

Test: qHTS for Inhibitors of binding or entry into cells for Lassa Virus; further: nearly all actives have a fitted effect of over 50% in size
Details: Lassa virus pseudotype entry inhibition, cell reporter; series mostly up to 37.9 µM
In the case of `O=C(O)/C=C/c1ccc2c(-c3ccccc3)onc2c1`, the Potency is reported as inconclusive: 17.8 µM [activator, single point]. For `Cc1oc(-c2cccc(Cl)c2)nc1CN1CCC(C(=O)NCCc2ccc(Cl)cc2)CC1`, the Potency was “inactive”. In the case of `CCn1c(COc2cccc(C)c2C)nnc1SCC(=O)N1CCN(c2ccc(OC)cc2)CC1`, the Potency is reported as inconclusive: 25.9 µM [inhibitor, partial curve, poor fit]. With `Cc1ccc(CN2C(=O)c3ccccc3Sc3ccc(C(=O)NCCCN4CCOCC4)cc32)cc1` the Potency was inconclusive: 3.98 µM [inhibitor, partial curve, poor fit]. In the case of `CC(C)(C)C(=O)NCCCc1nc2ccccc2n1CCCOc1ccc(Cl)cc1`, the Potency is reported as inconclusive: 35.5 µM [inhibitor, single point]. For `Cc1ccc2nc(Nc3ccc4[nH]c(=O)[nH]c4c3)c(-n3nc(C)cc3C)nc2c1`, the Potency was inconclusive: 32.6 µM [inhibitor, single point]. For `Cc1cc(Cl)ccc1OCc1cc(=O)n2c3c(sc2n1)CCCC3`, the Potency was “inactive”. With `Cc1ccc(CNC(=O)Nc2ccc(F)cc2)n1C` the Potency was “inactive”. For `CCOc1ccc(S(=O)(=O)Nc2ccc(F)cc2)c(C)c1C`, the Potency was inconclusive: 29.1 µM [inhibitor, partial curve, poor fit]. For `COc1ccccc1-c1nnc(SCC(=O)c2ccc(F)cc2)n1-c1ccccc1`, the Potency was inconclusive: 10 µM [inhibitor, partial curve, poor fit]. For `O=C(CN1C(=O)NC2(CCCCCC2)C1=O)c1ccc2c(c1)OCCO2`, the Potency was inconclusive: 1.16 µM [activator, single point]. For `Cn1nnnc1SCCNCc1ccc(OCc2ccc(Cl)cc2)cc1`, the Potency was “inactive”. For `CCS(=O)(=O)N1CCN(c2ccc([N+](=O)[O-])c(NC(C)c3ccccc3)c2)CC1` (centres undefined), the Potency was inconclusive: 8.91 µM [inhibitor, partial curve, poor fit]. For `Cc1ccccc1NS(=O)(=O)c1ccc(OCC(=O)NCc2ccco2)cc1`, the Potency was inconclusive: 10 µM [inhibitor, partial curve, poor fit]. For `O=C(/C=C/c1cccc(F)c1)c1ccc(N2CCOCC2)cc1`, the Potency was inconclusive: 25.1 µM [inhibitor, single point]. In the case of `CC(NC(=O)c1ccccc1)C(=O)OCC(=O)Nc1cccc(S(=O)(=O)N2CCCC2)c1` (centres undefined), the Potency is reported as “inactive”. With `COc1cc(C(=O)Nc2ccc3c(c2)OCCO3)ccc1-n1cnnn1` the Potency was inconclusive: 29.1 µM [activator, single point]. In the case of `CN(C)CCCN(C(=O)CCc1ccccc1)c1nc2c(F)cccc2s1`, the Potency is reported as inconclusive: 11.2 µM [inhibitor, partial curve, poor fit]. With `COc1ccccc1NC(=O)N(Cc1ccc2c(c1)OCO2)C1CCN(Cc2ccccc2)CC1` the Potency was inconclusive: 35.5 µM [inhibitor, single point]. With `C=Cc1ccc(Cn2c(=O)cc(C)c3c(C)nn(C)c32)cc1` the Potency was inconclusive: 31.6 µM [inhibitor, single point]. In the case of `CCCCn1c(/N=C/c2ccccc2NS(=O)(=O)c2ccc(C)cc2)nc2ccccc21`, the Potency is reported as inconclusive: 17.8 µM [inhibitor, single point]. In the case of `COc1ccccc1NC(=O)Nc1nnc(C(C)C)s1`, the Potency is reported as inconclusive: 6.31 µM [inhibitor, single point]. With `O=C(Cc1cccs1)Nc1ccc(Cl)c(S(=O)(=O)N2CCOCC2)c1` the Potency was inconclusive: 3.55 µM [inhibitor, partial curve, poor fit]. For `O=C(Nc1ccc2c(c1)C(=O)N(c1ccccc1)C2=O)C1CCCO1` (centres undefined), the Potency was inconclusive: 0.0366 µM [activator, full curve, poor fit]. For `COC(=O)c1cccc(-n2nnnc2SCC(=O)Nc2nc3c(s2)CCCC3)c1`, the Potency was “inactive”. With `CCOC(=O)N1CCN(c2c(-c3ccc(C(C)C)cc3)c(=O)c2=O)CC1` the Potency was inconclusive: 16.4 µM [inhibitor, single point]. In the case of `OC(COC(c1ccc(Cl)cc1)c1ccc(Cl)cc1)CN1CCc2ccccc2C1` (centres undefined), the Potency is reported as inconclusive: 29.1 µM [inhibitor, single point]. In the case of `O=C1NC(=O)N(Cc2ccco2)C(=O)/C1=C/c1ccc(-c2cccc([N+](=O)[O-])c2)o1`, the Potency is reported as “inactive”. In the case of `CCN1CCN(C(=O)c2ccc(OC3CCN(CCc4ccccc4)CC3)cc2)[C@@H](C)C1=O`, the Potency is reported as “inactive”. In the case of `COc1ccccc1NC(=O)c1cc(S(=O)(=O)N2CCc3ccccc32)ccc1F`, the Potency is reported as inconclusive: 10 µM [activator, partial curve, poor fit]. In the case of `COc1ccccc1C(=O)Nc1cccc2cccnc12`, the Potency is reported as “inactive”. With `Cc1ccc(S(=O)(=O)N(Cc2ccccc2)c2ccccc2C(=O)N2CCCCC2)cc1` the Potency was inconclusive: 14.1 µM [inhibitor, partial curve, poor fit]. With `CSc1nnc(-c2ccccc2)o1` the Potency was “inactive”. For `CC(=O)N(CCC1(c2ccc(C)cc2)CCOC(C(C)C)C1)Cc1ccco1` (centres undefined), the Potency was inconclusive: 25.1 µM [inhibitor, single point]. With `CCCCOc1cccc(C(=O)NC(=S)Nc2cccnc2)c1` the Potency was inconclusive: 15.8 µM [inhibitor, partial curve]. For `Cc1ccccc1-c1nnc(-c2ccc(Br)cc2)o1`, the Potency was “inactive”. In the case of `CCCn1c(N)c(C(=O)CSc2n[nH]c(-c3ccc(C)cc3)n2)c(=O)[nH]c1=O`, the Potency is reported as inconclusive: 0.112 µM [activator, full curve]. In the case of `O=c1c(S(=O)(=O)c2ccc(Cl)cc2)cn(Cc2ccc(F)cc2)c2ccc(F)cc12`, the Potency is reported as “inactive”. In the case of `Cn1cccc1-c1nc2ccc([N+](=O)[O-])cc2[nH]1`, the Potency is reported as “inactive”. In the case of `CC(Oc1ccccc1)c1ccnn1S(=O)(=O)c1ccccc1` (centres undefined), the Potency is reported as inconclusive: 29.1 µM [inhibitor, single point]. In the case of `Clc1ccccc1CN1CCN(CCCc2ccccc2)CC1`, the Potency is reported as inconclusive: 8.91 µM [inhibitor, partial curve]. With `CNC(=O)c1sc(-n2cnc3cc(OC)c(OC)cc32)cc1OCc1ccccc1C(F)(F)F` the Potency was inconclusive: 31.5 µM [inhibitor, single point]. In the case of `Cc1ccc(-c2cc(-c3nnc(SCC(=O)NCC(C)C)n3N)c3ccccc3n2)cc1`, the Potency is reported as “inactive”. In the case of `COCCNC(=O)C(c1ccc(F)cc1)N(CCOC)C(=O)CCC(=O)Nc1ccccn1` (centres undefined), the Potency is reported as “inactive”. With `O=C(Cc1ccccc1)OC(COCc1ccccc1)CN1CCOCC1` (centres undefined) the Potency was “inactive”. For `COc1ccc(Oc2nc(C)nc3c2oc2ccccc23)cc1`, the Potency was inconclusive: 29.1 µM [inhibitor, single point]. For `CCOC(=O)C1CCCN(C(=O)c2cnn3c(C(F)F)cc(-c4ccc(C)cc4)nc23)C1` (centres undefined), the Potency was inconclusive: 11.2 µM [inhibitor, single point]. With `CC(C)(C)c1ccc(C(=O)OCC(=O)NC2CC2)cc1` the Potency was “inactive”. For `CC(C)CCN(Cc1ccco1)C(=O)Cn1ncc2c([nH]c3ccccc32)c1=O`, the Potency was “inactive”. In the case of `Cc1cc(F)ccc1NC(=O)Cn1c(=O)ccc2cc(S(=O)(=O)N3CCC(C)CC3)ccc21`, the Potency is reported as “inactive”. In the case of `CCCn1nc(NC(=O)c2cccs2)c2cc3cc(C)ccc3nc21`, the Potency is reported as inconclusive: 20 µM [inhibitor, partial curve, poor fit]. With `CCN(CC)CCCNC(=O)CN1N=C(c2ccccc2)CCC1=O` the Potency was inconclusive: 2.82 µM [activator, single point]. With `CC(Oc1ccc(Br)cc1)C(=O)Nc1cc(Cl)ccc1N1CCN(C)CC1` (centres undefined) the Potency was inconclusive: 35.5 µM [inhibitor, single point]. For `C=CCNC(=O)/C(C#N)=C\c1cc(Cl)c(OCC)c(OC)c1`, the Potency was “inactive”. In the case of `C=CCn1c(SCc2nc3sc(C(=O)O)c(C)c3c(=O)[nH]2)nnc1-c1ccc(C(C)(C)C)cc1`, the Potency is reported as inconclusive: 20 µM [inhibitor, single point]. With `COc1ccc(Cn2nnc3c(=O)[nH]c(C4CCN(C(=O)c5ccc(C)cc5)CC4)nc32)cc1OC` the Potency was “inactive”. In the case of `CC(C)(C)NCc1cc(Cl)ccc1OCc1ccccc1F`, the Potency is reported as “inactive”. With `O=C(N/N=C/c1c(O)n(C2CC2)c(=S)[nH]c1=O)c1ccccc1O` the Potency was inconclusive: 31.6 µM [inhibitor, single point]. In the case of `O=C(CCSCc1ccccc1F)NCc1ccc(F)cc1`, the Potency is reported as “inactive”. For `COC(=O)C1=NOC2(C=C(Br)C(OC)=C(Br)C2=O)C1` (centres undefined), the Potency was inconclusive: 5.31 µM [inhibitor, single point]. In the case of `Oc1ccccc1-c1nnc(-c2ccc(C(F)(F)F)cc2)o1`, the Potency is reported as inconclusive: 15.8 µM [activator, partial curve, poor fit]. With `CCN(CC)c1ccc(/C=N/NC(=O)Nc2nonc2N)cc1` the Potency was inconclusive: 29.1 µM [inhibitor, single point]. In the case of `O=C(O)c1ccccc1Nc1cc(Cl)c2nonc2c1[N+](=O)[O-]`, the Potency is reported as “inactive”. With `Cc1ccc(NC(=O)C(C)[n+]2ccccc2)cc1[N+](=O)[O-]` (centres undefined) the Potency was inconclusive: 3.16 µM [inhibitor, partial curve, poor fit]. In the case of `O=C(CSc1ccc2nc(-c3ccccc3)cn2n1)Nc1cccc(F)c1`, the Potency is reported as “inactive”. For `COc1ccc(N2C(=S)N(C(=O)c3ccccc3)C(=Nc3ccccc3)C2=Nc2ccccc2)cc1`, the Potency was inconclusive: 10.3 µM [inhibitor, partial curve, poor fit]. With `CS(=O)(=O)c1nc(-c2ccccc2)cc(C(F)(F)F)n1` the Potency was inconclusive: 25.1 µM [inhibitor, single point]. For `Cc1ccc(C(=O)NCc2ccco2)cc1S(=O)(=O)Nc1cccc(Cl)c1`, the Potency was inconclusive: 20.6 µM [inhibitor, single point]. With `CC(C)=CCCC(C)=CCON=C1C[C@@H](O)[C@@H](O)[C@@H]2[C@H]3C(=O)N(Cc4ccc5c(c4)OCO5)C(=O)[C@@H]3CC[C@H]12` the Potency was inconclusive: 0.944 µM [inhibitor, full curve, poor fit].
